# Test results from PubChem BioAssay AID445 (National Center for Advancing Translational Sciences (NCATS), 2006).
# Values joined by “and” are separate entries in the source; they are usually repeats but may differ in a detail not shown here. Equal values may be shown once. This is one part of the list. Further columns of the screen follow, without active or inactive calls. Most of these compounds were active or inconclusive in the main read-out, so they are no random draw. Words in brackets tell the shape of the fitted curve; partial curves, single points and poor fits give uncertain potencies.
# Experiment: IkB Signaling
# Details: ABC-DLBCL IkBa-CBG/CBR dual luciferase ratio (green luciferase fused to IkBa over red control in OCI-Ly3 lymphoma cells), 4 h
# How it was run: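 In this assay, an IκBα–CBG68 fusion accumulates when IKK-driven degradation is blocked; native CBR normalizes for cell number. OCI-Ly3 cells were treated 4 h with compound and doxycycline, then green and red light read after Chroma-Glo addition.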
# [1] = measured here: control luc red channel unless noted
# [2] = measured here: IkB-luc green channel
# [3] = measured here: control luc red channel
structure (smiles),measurement,setting,value
CCC1CCCCN1C(=O)CSc1nc2c([nH]c3ccccc32)c(=O)n1-c1ccc(OC)cc1 (configuration not stated),AC50,[1],"20 µM [falling, single point]"
Cc1cccc(Cn2cccc2CNS(=O)(=O)c2ccc(Br)cc2)c1,AC50,[1],"12.6 µM [falling, partial curve]"
COc1cc(-c2nnc(SCCOc3cc(C)cc(C)c3)o2)cc(OC)c1OC,AC50,[1],"3.16 µM [rising, partial curve]"
O=C(c1cc2nc(-c3ccco3)cc(C(F)(F)F)n2n1)N1CCN(c2ccc(F)cc2)CC1,AC50,[1],"31.6 µM [falling, single point]"
COc1ccc(NC(=O)c2cccs2)cc1O,AC50,[1],"15.8 µM [falling, partial curve]"
COc1ccc(S(=O)(=O)Nc2cc(S(=O)(=O)c3ccccc3)c(O)c(C)c2C)cc1,AC50,[1],"2.51 µM [falling, full curve]"
COC(=O)C(C)N(C#N)c1nc(C)nc(C)n1 (configuration not stated),AC50,[1],"12.6 µM [falling, partial curve]"
Cc1cc(OC(C)C(=O)Nc2sc3c(c2C(N)=O)CCCC3)ccc1Cl (configuration not stated),AC50,[1],"12.6 µM [rising, partial curve, poor fit]"
CCOC(=O)N1CCN(S(=O)(=O)c2ccc(OC)c3ccccc23)CC1,AC50,[1],"12.6 µM [falling, partial curve]"
COc1ccc(OC)c(NC(=O)CN(c2ccc(C)cc2)S(=O)(=O)c2c(C)noc2C)c1,AC50,[1],"12.6 µM [falling, partial curve]"
COc1cccc(-c2nc(S(=O)(=O)c3ccc(C)cc3)c(N3CCCCC3)o2)c1,AC50,[1],"39.8 µM [falling, single point]"
Nc1c(Nc2ccccc2)c2ccccc2oc1=O,AC50,[1],"39.8 µM [falling, single point]"
CCOC(=O)c1c(C)oc2ncnc(Nc3ccc(OC)c(OC)c3)c12,AC50,[1],"6.31 µM [rising, full curve]"
CCOC(=O)c1ccccc1NC(=O)CSc1nccn1Cc1ccco1,AC50,[1],"31.6 µM [falling, single point]"
CC(C)Oc1ccc(C(=O)N(Cc2ccco2)Cc2cccs2)cc1,AC50,[1],"31.6 µM [falling, single point]"
Cc1cccc(C)c1NC(=O)c1sc(-n2nc(C)c(Cc3ccccc3)c2C)nc1C,AC50,[1],"0.1 µM [falling, full curve, poor fit]"
O=C(CSc1ncc(S(=O)(=O)c2ccc(Cl)cc2)c(=O)[nH]1)Nc1cccc(C(F)(F)F)c1,AC50,[1],"5.01 µM [falling, partial curve]"
Cc1cc(OCC(=O)N(Cc2ccc(N(C)C)cc2)CC2CCCO2)ccc1Cl (configuration not stated),AC50,[1],"15.8 µM [falling, partial curve]"
CC(C)c1ccc2oc(-c3ccc(N)cc3)nc2c1,AC50,[1],"0.0631 µM [falling, full curve]"
COc1ccc(-c2cc3nc(C)c(CCC(=O)NC4CCCCC4)c(C)n3n2)c(OC)c1,AC50,[1],"1.26 µM [falling, full curve]"
CCC(c1nnnn1C(C)(C)CC)N(CCCO)Cc1cc2cccc(C)c2[nH]c1=O (configuration not stated),AC50,[2],"39.8 µM [rising, single point]"
same,AC50,[3],"20 µM [falling, partial curve]"
COc1ccc(C2CC(=O)c3cc(-c4nc(-c5ccc(Cl)cc5)cs4)c(=O)[nH]c3C2)cc1OC (configuration not stated),AC50,[1],"7.94 µM [falling, partial curve]"
CCn1cc(C(=O)N2CCN(c3cccc(C)c3C)CC2)c2cc(OC)c(OC)cc2c1=O,AC50,[1],"39.8 µM [falling, single point]"
Cc1ccccc1C(=O)n1nc(-c2cccnc2)nc1NCc1ccccc1,AC50,[1],"0.2 µM [falling, full curve, poor fit]"
CCOC(=O)c1sc2nc(-c3ccco3)c3c(c2c1N)CC(C)(C)OC3,AC50,[1],"12.6 µM [falling, partial curve]"
Cc1ccc(CNC(=O)CCS(=O)(=O)c2cc(Br)cc3c2N(C(=O)C2CC2)CC3)cc1,AC50,[1],"31.6 µM [falling, single point]"
COc1cc2c(c(OC)c1OC)-c1ccc(OC)c(=O)cc1[C@@H](NC(C)=O)CC2,AC50,[2],"12.6 nM [rising, full curve] and 20 nM [rising, full curve]"
same,AC50,[3],"6.31 µM [rising, partial curve] and 12.6 nM [rising, full curve] and 15.8 nM [rising, full curve]"
CC(C)[C@H](CO)Nc1nc(Nc2cc(N)cc(Cl)c2)c2ncn(C(C)C)c2n1,AC50,[1],"0.631 µM [falling, full curve]"
COc1ccccc1CCNC(=O)C(=O)NCC(c1ccco1)S(=O)(=O)c1ccc(C)cc1 (configuration not stated),AC50,[1],"39.8 µM [falling, single point]"
Cc1cc(C)c(S(=O)(=O)NCC(c2cccs2)S(=O)(=O)c2ccccc2)c(C)c1 (configuration not stated),AC50,[1],"31.6 µM [rising, single point] [measured here: IkB-luc green channel]"
Cc1ccc(NCc2nc3ccccc3n2CCOc2ccccc2)cc1,AC50,[1],"3.98 µM [falling, partial curve]"
CCCOc1cccc(C(=O)Nc2cccc(NC(=O)c3ccco3)c2)c1,AC50,[1],"5.01 µM [falling, partial curve]"
COc1ccccc1Nc1cc(C(=O)NCc2cccs2)c2ccccc2n1,AC50,[1],"7.94 µM [falling, partial curve]"
Clc1ccc(-c2nnc(NC3=NCCCCC3)o2)cc1,AC50,[1],"0.0398 µM [falling, full curve]"
Cc1nc(-c2ccccc2)sc1CCNS(=O)(=O)c1ccc(Br)cc1,AC50,[1],"20 µM [falling, partial curve]"
O=C1c2ccccc2-c2n[nH]c3cccc1c23,AC50,[1],"39.8 µM [falling, partial curve, poor fit] [measured here: IkB-luc green channel]"
O=C(O)CCC(=O)c1ccc2sc3ccccc3c2c1,AC50,[1],"0.0501 µM [falling, full curve]"
O=C(c1ccc(OCCN2CCCCC2)cc1)c1c(-c2ccc(O)cc2)sc2cc(O)ccc12,AC50,[1],"6.31 µM [falling, partial curve, poor fit] [measured here: IkB-luc green channel]"
O=C(NC(Cc1ccccc1)C(=O)N1CCN(c2ccccn2)CC1)c1ccco1 (configuration not stated),AC50,[1],"12.6 µM [falling, partial curve]"
CN(C)S(=O)(=O)c1cccc(-c2nnc(SCc3ccc4c(c3)OCCO4)o2)c1,AC50,[1],"39.8 µM [falling, single point]"
Cc1cccc(N2CCN(C(=O)CS(=O)(=O)c3cccc4nsnc34)CC2C)c1 (configuration not stated),AC50,[1],"20 µM [falling, single point]"
CC1(C)CC(=O)c2c(oc3c(Cl)cc(NS(=O)(=O)c4ccc(Cl)cc4)cc23)C1,AC50,[1],"39.8 µM [falling, single point]"
CN(C)S(=O)(=O)c1ccc2c(c1)N(CC(=O)N1CCN(c3ccc(F)cc3)CC1)CCS2,AC50,[1],"25.1 µM [falling, partial curve, poor fit]"
Cc1ccc(-c2nc(CS(=O)CC(=O)N3CCN(c4ccc(Cl)cc4)CC3)c(C)o2)cc1 (configuration not stated),AC50,[1],"25.1 µM [falling, partial curve, poor fit]"
CC1CCN(c2ccc(-c3nc(C(C)C)no3)cc2[N+](=O)[O-])CC1,AC50,[1],"25.1 µM [falling, single point]"
Cc1nc2ccccc2c(=O)n1-c1ccc(NC(=O)C(F)(F)F)cc1,AC50,[1],"6.31 µM [rising, single point]"
C=CCn1c(SCC(=O)Nc2ccc3c(c2)OCO3)nnc1-c1cc(Br)ccc1O,AC50,[1],"12.6 µM [falling, partial curve]"
COc1ccc(OC)c(CNC(=O)CCCn2ccc3cc(S(=O)(=O)N4CCCC4)ccc32)c1,AC50,[1],"31.6 µM [falling, partial curve]"
CCOc1ccc(CNC(=O)CCC(=O)N2CC(C)Sc3ccccc32)cc1 (configuration not stated),AC50,[1],"15.8 µM [falling, partial curve]"
CCOc1ccc(CCNC(=O)CCCn2nc(C)c3sc4ccccc4c3c2=O)cc1OCC,AC50,[1],"10 µM [falling, partial curve]"
O=C(CSc1nccn1-c1ccccc1)Nc1nc2ccccc2s1,AC50,[1],"39.8 µM [falling, partial curve]"
CCCc1cc(=O)[nH]c(Nc2ccc(C(=O)O)cc2)n1,AC50,[1],"15.8 µM [falling, partial curve]"
COC(=O)CC1c2cc(OC)c(OC)cc2CCN1C(=O)Nc1ccc(C)cc1Cl (configuration not stated),AC50,[1],"12.6 µM [falling, single point]"
COc1ccccc1Nc1nn2c(=O)c3ccc(C(=O)NCCCOC(C)C)cc3nc2s1,AC50,[1],"0.631 µM [falling, full curve, poor fit]"
CCc1ccc(CNC(=O)c2cccc(-n3cnc4cccnc43)c2C)cc1,AC50,[1],"12.6 µM [falling, partial curve]"
CCC1CN(C(=O)N2CCC(C(=O)NCCN(C)C)CC2)c2ccccc2O1 (configuration not stated),AC50,[1],"20 µM [falling, partial curve]"
Cn1cccc1C(=O)OCc1csc(-c2ccccc2)n1,AC50,[1],"6.31 µM [falling, partial curve]"
Cc1ccc(CN(C(=O)COc2cccc([N+](=O)[O-])c2)c2ccccn2)o1,AC50,[1],"7.94 µM [falling, partial curve, poor fit]"
O=S(=O)(Nc1ccc(Cl)cc1)c1ccc(NS(=O)(=O)c2ccc3c(c2)OCCO3)cc1,AC50,[1],"10 µM [falling, partial curve]"
OCCCc1nc2ccccc2n1CCOc1ccccc1,AC50,[1],"7.94 µM [falling, partial curve]"

# Given with bars between the fields: entries from further up.
structure (smiles) | measurement | setting | value
Nc1c(Nc2ccccc2)c2ccccc2oc1=O | AC50 | [1] | 39.8 µM [falling, single point]
CCOC(=O)c1c(C)oc2ncnc(Nc3ccc(OC)c(OC)c3)c12 | AC50 | [1] | 6.31 µM [rising, full curve]
CCOC(=O)c1ccccc1NC(=O)CSc1nccn1Cc1ccco1 | AC50 | [1] | 31.6 µM [falling, single point]
CC(C)Oc1ccc(C(=O)N(Cc2ccco2)Cc2cccs2)cc1 | AC50 | [1] | 31.6 µM [falling, single point]
Cc1cccc(C)c1NC(=O)c1sc(-n2nc(C)c(Cc3ccccc3)c2C)nc1C | AC50 | [1] | 0.1 µM [falling, full curve, poor fit]
